One molecule from paper PMC6528313 can be followed below.

The target of this assay is S2Lb-GFP (SWD2-like b, GFP-tagged) (Arabidopsis thaliana). As to the kind of experiment: affinity purification with mass spectrometry; GFP-trap immuno-isolation from 2 g of 10-day-old pS2Lb::S2Lb-GFP seedlings in modified RIPA buffer, wild-type Col-0 as negative control, four biological replicates; LC-MS/MS.

No constants are given. Whether binding was seen depends on the method and setting. Binding seen in cells or lysates may run through a third protein. A yes stands for co-enrichment or nearness to the bait. Other partners may have been found.

B1: CDKC;1 (enzyme, UniProt Q9LFT8 1-505)
chain: MAMASFGQLNLEEPPPIWGSRSVDCFEKLEQIGEGTYGQVYMAKEIKTGEIVALKKIRMDNEREGFPITAIREIKILKKLHHENVIQLKEIVTSPGRDRDDQGKPDNNKYKGGIYMVFEYMDHDLTGLADRPGLRFTVPQIKCYMKQLLTGLHYCHVNQVLHRDIKGSNLLIDNEGNLKLADFGLARSYSHDHTGNLTNRVITLWYRPPELLLGATKYGPAIDMWSVGCIFAELLHAKPILPGKNEQEQLNKIFELCGSPDEKLWPGVSKMPWFNNFKPARPLKRRVREFFRHFDRHALELLEKMLVLDPAQRISAKDALDAEYFWTDPLPCDPKSLPTYESSHEFQTKKKRQQQRQNEEAAKRQKLQHPPLQHSRLPPLQHGGQSHAAPHWPAGPNHPTNNAPPQVPAGPSHNFYGKPRGPPGPNRYPPSGNQSGGYNQSRGGYSSGSYPPQGRGAPYVAGPRGPSGGPYGVGPPNYTQGGQYGGSGSSGRGQNQRNQQYGWQQ
B1: the binding result was “binds”.
